In patent US20250369974A1, “METHOD FOR MONITORING AND PREVENTING CLINICALLY SIGNIFICANT KETONE LEVELS IN PATIENTS RECEIVING DICHLOROACETATE CO-ADMINISTERED WITH A CARBOHYDRATE RESTRICTED DIET” (SAOL INTERNATIONAL DEVELOPMENT LTD., priority 2024, published 2025):
For at least one compound, name, drawing or mass did not settle the structure.

Tests used:
rats = conditions: transient; cited from earlier work
[1] = system: patients with Pyruvate Dehydrogenase Complex Deficiency (PDCD); assay: Phase III double-blind, placebo-controlled crossover study with open label period: ObsROmotor, GHA, seizures, observer survey; assay type: in vivo, human
Procedure: A double-blind period (Phase A) and an open label period (Phase B) was performed in patients 6 months through 17 years of age with Pyruvate Dehydrogenase Complex Deficiency (PDCD) (n=34). Patients receiving DCA were dose-stratified according to GSTZ1 genotype. DCA was dosed orally (oral, nasogastric tube, or gastric tube route) at either 12.5 mg/kg (fast metabolizers) or 6.25 mg/kg (slow metabolizers), every 12 hours. Twenty-seven (27) of 34 patients (79%), were fast metabolizers.
The drug product is a clear, colorless solution.
The primary efficacy outcome was assessed using an observer reported outcome that measures motor function, referred to as the ObsROmotor. The ObsROmotor is a daily observer reported survey that assesses weakness, incoordination, hypotonia (low muscle tone), hypertonia (rigidity, stiff muscle tone), and involuntary movements. Each domain was scored from 0 to 4, where 0 is no presence of the symptom, 1 is mild, 2 is moderate, 3 is severe and 4 extreme, with a total score ranging from 0 to 20.
PDCD is a heterogenous disease with neurologic, metabolic and structural abnormalities. An observer rated Global Health Assessment (GHA) was also used to assess the overall health of the patient in addition to ObsROmotor. GHA was measured each week to assess the prior 7 days using a 5-point scale (much better, better, no change, worse, much worse). GHA scores improved over time and the scores were correlated with ObsROmotor.

[2] = system: pediatric patients with PDCD; assay: Survival study of DCA-treated patients versus untreated natural history cohort; assay type: in vivo, human; conditions: FIG. 1
Procedure: Efficacy was assessed in a second study by comparing overall survival in pediatric patients with PDCD treated with DCA (n=28) with an untreated natural history cohort of pediatric patients with genetically confirmed PDCD (n=28).

[3] = of five patients with seizures during baseline period

O=C(O)C(Cl)Cl [DCA, Dichloroacetate]
ketone levels following administration of DCA in vivo (rats): rises in ketone levels | patients whose seizures worsened while on treatment with DCA [1, 3]: none worsened | patients with clinically meaningful reductions in the number of seizures [1, 3]: two | patients with complete resolution of seizures while on DCA [1, 3]: One | observers reporting patient worsening (GHA) ([1]; open-label portion): no observers reported patient worsening | overall survival compared to untreated PDCD patients (matched historical control group) [2]: statistically significant improvement in overall survival
